{"source": "patent US20110077206A1", "about": "“USE OF HNF4ALPHA FOR TREATMENT OF HUMAN MALIGNANT SOLID TUMORS THROUGH INDUCTION-DIFFERENTIATION THERAPY” (SECOND MILITARY MEDICAL UNIVERSITY, priority 2008, published 2011)", "key": {"[1]": {"system": "Human hepatoma cell lines HepG2 and Hep3B", "assay": "In vitro effects of control substances on hepatoma cell lines (RT-PCR, immunohistochemistry, morphology)", "format": "cell-based", "conditions": "background statement of inventors' study", "experimental": "Human hepatoma cell lines HepG2 and Hep3B were inoculated onto the six-well plate with a concentration of 5×10^5 cells/dish, and the all-trans retinoic acid, somatostatin, tumor necrosis factor, and arsenic trioxide were added respectively. The total RNA was extracted by Trizol kit, and reverse transcriptase reaction was carried out for 2 hrs. 1 μl diluted reverse transcription product was taken and used as template for PCR amplification to detect the mRNA expression of liver cell-related function genes. The proliferation and apoptosis related proteins such as Cyclin, Bax, Bcl-2 and so on was measured by immunohistochemistry."}, "solid tumors": {"system": "solid tumors", "assay": "In vivo study of control substances on solid tumor differentiation", "conditions": "background statement of inventors' study"}}, "note": "At least one structure is not confirmed: it was looked up by name or label, or the drawing left a doubt.", "data": [{"smiles": "C[C@H](N)C(=O)NCC(=O)N[C@H]1CSSC[C@@H](C(=O)O)NC(=O)[C@H](CO)NC(=O)[C@H]([C@@H](C)O)NC(=O)[C@H](Cc2ccccc2)NC(=O)[C@H]([C@@H](C)O)NC(=O)[C@H](CCCCN)NC(=O)[C@H](Cc2c[nH]c3ccccc23)NC(=O)[C@H](Cc2ccccc2)NC(=O)[C@H](Cc2ccccc2)NC(=O)[C@H](CC(N)=O)NC(=O)[C@H](CCCCN)NC1=O", "note": "[somatostatin]", "values": [{"measurement": "regulation effect on in vitro differentiation of hepatocellular carcinoma cell lines", "setting": "[1]", "result": "no drugs or proteins with clear differentiation therapy effects"}, {"measurement": "in vivo induction of differentiation of solid tumors", "setting": "solid tumors", "result": "can not effectively induce the differentiation of solid tumors"}]}]}
